Data on 27 targets can be found in the supplement of paper PMC7666118.

By UniProt entry, the sequences of proteins in these tests, tags left out. Where a name states a change or a piece, a line headed by the entry shows the natural chain unless it says otherwise.
UniProt Q8NBT2: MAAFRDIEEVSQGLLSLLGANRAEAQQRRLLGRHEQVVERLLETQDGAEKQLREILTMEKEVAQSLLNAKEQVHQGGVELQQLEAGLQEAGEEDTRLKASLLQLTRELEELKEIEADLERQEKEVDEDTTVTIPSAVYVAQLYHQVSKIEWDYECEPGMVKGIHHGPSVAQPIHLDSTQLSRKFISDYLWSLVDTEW
UniProt Q9Y2Z0: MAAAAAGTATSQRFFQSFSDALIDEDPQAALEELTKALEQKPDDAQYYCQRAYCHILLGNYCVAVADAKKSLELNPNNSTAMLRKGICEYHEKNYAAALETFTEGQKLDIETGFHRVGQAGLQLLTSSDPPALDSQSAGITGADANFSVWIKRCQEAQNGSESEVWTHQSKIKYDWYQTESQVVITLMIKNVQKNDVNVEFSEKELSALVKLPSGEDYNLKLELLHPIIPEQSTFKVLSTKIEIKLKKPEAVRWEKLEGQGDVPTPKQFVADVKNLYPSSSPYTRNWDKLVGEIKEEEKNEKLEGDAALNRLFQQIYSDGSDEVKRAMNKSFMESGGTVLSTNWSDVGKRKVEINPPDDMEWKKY
UniProt Q9UMY4: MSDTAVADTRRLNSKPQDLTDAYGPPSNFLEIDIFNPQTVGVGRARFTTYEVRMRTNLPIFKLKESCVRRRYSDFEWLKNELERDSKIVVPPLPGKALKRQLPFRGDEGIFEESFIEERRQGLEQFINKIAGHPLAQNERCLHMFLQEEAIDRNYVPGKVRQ
UniProt O95219: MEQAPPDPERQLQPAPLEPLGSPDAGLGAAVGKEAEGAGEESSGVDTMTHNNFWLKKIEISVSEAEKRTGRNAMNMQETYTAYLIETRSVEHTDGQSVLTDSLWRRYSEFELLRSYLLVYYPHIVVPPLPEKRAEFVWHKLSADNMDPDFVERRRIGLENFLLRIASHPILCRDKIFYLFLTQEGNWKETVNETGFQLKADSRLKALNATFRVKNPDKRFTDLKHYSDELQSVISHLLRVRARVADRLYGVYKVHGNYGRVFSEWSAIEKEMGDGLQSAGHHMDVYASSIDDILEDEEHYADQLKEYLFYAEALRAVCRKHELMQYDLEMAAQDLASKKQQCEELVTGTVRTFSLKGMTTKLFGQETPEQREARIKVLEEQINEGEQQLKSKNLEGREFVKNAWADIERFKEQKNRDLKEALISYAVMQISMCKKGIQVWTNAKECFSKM
UniProt P19634, whole entry: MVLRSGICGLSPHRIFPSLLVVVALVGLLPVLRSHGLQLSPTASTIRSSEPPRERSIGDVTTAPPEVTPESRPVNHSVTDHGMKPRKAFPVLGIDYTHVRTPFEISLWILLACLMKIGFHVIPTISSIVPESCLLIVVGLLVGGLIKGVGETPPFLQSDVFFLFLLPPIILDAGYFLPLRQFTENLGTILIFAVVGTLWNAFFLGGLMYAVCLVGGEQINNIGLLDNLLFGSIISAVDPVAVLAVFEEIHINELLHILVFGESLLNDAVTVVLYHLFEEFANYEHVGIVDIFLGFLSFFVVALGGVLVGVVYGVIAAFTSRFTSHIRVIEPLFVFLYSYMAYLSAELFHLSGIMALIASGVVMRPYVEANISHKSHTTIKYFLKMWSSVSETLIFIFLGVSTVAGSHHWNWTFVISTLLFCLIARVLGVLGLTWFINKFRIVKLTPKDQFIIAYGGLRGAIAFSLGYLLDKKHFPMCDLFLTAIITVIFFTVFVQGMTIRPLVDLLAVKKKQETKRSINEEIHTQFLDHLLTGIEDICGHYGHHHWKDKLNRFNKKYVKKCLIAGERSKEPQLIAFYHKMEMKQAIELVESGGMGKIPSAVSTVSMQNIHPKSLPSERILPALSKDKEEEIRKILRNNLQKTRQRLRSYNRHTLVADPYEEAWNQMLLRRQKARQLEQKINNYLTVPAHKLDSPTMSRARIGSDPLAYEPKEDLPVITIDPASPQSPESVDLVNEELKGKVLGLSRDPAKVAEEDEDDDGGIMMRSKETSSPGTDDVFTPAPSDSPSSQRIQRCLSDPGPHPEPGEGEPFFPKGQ
UniProt Q8TCJ2: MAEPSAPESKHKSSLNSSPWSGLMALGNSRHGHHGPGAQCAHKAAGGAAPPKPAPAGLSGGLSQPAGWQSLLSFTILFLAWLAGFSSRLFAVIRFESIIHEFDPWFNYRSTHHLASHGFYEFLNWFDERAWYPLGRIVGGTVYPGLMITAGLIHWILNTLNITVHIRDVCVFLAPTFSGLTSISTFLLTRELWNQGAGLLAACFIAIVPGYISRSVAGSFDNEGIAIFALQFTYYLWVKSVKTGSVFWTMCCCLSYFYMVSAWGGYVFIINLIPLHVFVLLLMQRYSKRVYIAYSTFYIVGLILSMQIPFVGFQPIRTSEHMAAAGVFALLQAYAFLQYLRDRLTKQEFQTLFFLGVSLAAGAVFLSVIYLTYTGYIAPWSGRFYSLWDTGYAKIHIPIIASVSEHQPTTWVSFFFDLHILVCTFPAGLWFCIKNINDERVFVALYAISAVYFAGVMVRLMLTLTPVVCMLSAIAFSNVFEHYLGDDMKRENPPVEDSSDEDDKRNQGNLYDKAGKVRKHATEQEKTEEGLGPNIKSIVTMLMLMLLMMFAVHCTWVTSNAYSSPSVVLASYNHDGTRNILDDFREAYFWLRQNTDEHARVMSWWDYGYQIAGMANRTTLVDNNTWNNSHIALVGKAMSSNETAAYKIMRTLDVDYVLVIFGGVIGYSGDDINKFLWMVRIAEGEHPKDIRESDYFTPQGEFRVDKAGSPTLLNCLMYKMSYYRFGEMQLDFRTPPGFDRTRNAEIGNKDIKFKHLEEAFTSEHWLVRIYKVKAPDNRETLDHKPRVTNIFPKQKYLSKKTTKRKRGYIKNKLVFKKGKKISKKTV
UniProt O00506, whole entry, looked up: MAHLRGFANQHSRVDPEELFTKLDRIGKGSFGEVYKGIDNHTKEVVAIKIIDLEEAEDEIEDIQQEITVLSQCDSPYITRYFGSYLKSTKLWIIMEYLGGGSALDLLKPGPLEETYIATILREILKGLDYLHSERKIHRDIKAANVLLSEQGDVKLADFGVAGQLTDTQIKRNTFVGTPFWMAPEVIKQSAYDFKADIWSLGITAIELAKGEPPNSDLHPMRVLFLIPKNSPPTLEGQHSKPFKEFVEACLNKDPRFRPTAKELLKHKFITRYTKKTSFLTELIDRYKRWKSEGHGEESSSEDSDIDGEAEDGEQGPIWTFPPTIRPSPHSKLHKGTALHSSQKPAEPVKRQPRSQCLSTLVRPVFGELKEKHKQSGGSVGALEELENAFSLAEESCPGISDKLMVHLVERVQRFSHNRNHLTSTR
UniProt P52630: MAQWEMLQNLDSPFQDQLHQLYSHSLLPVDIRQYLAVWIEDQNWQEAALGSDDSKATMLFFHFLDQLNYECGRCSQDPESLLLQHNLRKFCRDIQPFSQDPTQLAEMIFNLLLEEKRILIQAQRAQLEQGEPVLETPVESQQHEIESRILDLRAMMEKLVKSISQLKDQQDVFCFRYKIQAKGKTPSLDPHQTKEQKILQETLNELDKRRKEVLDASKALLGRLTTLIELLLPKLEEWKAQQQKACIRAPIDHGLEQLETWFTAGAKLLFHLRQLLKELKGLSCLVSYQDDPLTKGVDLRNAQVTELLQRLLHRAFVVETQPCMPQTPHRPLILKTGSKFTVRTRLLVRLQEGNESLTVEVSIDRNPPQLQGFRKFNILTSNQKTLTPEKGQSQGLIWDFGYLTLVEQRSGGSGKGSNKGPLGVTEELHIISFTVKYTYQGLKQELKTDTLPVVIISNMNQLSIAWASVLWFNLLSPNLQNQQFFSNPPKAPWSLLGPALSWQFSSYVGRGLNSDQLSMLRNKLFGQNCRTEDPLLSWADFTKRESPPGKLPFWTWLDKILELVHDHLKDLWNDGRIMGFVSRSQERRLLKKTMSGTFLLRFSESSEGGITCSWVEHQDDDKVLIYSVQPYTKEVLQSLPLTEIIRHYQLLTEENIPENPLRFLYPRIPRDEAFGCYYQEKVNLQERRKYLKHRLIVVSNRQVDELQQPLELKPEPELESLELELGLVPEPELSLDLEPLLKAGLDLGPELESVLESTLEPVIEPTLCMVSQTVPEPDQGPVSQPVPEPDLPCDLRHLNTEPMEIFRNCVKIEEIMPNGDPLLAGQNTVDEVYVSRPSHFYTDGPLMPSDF
UniProt O15056: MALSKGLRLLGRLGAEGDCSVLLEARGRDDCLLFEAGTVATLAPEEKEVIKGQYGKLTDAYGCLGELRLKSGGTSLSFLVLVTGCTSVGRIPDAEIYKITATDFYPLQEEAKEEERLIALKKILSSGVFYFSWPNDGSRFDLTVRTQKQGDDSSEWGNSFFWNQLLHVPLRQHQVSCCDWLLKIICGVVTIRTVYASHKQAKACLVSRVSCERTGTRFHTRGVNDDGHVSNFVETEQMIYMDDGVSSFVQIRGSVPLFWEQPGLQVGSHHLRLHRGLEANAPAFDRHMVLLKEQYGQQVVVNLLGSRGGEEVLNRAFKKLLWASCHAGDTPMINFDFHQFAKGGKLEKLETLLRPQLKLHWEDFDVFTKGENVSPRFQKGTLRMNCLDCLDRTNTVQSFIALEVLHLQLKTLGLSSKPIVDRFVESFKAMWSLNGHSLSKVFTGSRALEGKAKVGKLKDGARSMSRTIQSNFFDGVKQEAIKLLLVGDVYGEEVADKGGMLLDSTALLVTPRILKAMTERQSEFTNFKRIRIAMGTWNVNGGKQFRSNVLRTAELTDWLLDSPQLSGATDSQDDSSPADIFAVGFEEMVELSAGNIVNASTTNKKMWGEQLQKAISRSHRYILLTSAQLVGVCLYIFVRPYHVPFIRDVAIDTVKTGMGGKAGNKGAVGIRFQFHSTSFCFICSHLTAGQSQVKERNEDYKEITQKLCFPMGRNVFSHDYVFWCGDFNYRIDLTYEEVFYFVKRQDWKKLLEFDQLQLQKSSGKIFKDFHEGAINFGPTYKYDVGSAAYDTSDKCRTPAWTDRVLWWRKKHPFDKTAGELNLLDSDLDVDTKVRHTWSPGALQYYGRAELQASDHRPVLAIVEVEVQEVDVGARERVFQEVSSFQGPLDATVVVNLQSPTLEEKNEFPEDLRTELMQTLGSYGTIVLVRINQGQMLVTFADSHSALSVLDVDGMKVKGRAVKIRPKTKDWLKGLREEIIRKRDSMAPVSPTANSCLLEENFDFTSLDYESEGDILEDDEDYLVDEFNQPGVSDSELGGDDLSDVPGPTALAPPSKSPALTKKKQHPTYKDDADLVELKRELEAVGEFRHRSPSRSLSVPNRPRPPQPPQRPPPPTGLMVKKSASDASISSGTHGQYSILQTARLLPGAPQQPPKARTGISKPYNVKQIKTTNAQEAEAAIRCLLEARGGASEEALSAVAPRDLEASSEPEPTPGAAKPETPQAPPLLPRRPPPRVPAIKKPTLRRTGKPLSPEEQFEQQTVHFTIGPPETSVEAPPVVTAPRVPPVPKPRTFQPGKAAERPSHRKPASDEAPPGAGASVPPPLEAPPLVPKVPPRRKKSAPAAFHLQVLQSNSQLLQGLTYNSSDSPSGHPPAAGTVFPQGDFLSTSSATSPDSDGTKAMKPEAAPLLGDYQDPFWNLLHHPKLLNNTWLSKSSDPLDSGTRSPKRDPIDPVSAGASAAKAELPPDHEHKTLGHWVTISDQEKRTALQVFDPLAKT
UniProt Q8TEV9: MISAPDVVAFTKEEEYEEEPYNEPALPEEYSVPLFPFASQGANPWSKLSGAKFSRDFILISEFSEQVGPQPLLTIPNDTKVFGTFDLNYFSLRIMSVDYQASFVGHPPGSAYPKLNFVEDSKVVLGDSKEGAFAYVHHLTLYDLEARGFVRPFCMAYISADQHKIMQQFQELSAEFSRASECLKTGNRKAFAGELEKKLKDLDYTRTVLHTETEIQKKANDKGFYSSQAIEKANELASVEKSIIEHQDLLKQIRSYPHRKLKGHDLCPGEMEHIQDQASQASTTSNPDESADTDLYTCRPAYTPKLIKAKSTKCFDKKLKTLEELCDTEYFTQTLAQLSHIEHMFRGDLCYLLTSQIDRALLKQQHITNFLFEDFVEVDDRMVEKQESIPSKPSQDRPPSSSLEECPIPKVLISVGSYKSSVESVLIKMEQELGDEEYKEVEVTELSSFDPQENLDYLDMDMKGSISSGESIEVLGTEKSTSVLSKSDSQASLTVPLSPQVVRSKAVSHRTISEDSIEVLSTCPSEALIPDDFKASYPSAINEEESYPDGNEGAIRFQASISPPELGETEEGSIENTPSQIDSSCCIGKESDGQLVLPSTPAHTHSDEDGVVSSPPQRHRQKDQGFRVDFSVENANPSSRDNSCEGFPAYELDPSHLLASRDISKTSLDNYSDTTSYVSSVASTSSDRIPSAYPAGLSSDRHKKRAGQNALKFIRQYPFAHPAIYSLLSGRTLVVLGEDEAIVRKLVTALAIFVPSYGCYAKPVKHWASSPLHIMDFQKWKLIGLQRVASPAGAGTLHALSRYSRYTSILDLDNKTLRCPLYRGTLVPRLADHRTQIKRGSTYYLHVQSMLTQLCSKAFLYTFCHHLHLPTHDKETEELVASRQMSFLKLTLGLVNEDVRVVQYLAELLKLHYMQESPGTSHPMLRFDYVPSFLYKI

The other results are listed elsewhere or left out.

Compound in the test: COc1ccc(Cn2ccc3ccc(C(=O)NO)cc32)cc1
Nature of the test: dose-dependent thermal stabilisation call (2D-TPP, DLPTP, 10% FDR) (binary (1 = stabilised)); higher = stabilised by the compound. To be noted: system: HL-60 intact cells; concentration range 0.04-10 µM.
In the case of STAU2 (UniProt Q9NUL3), the “dose-dependent thermal stabilisation call” value was inactive: 0.
Consider SPC24 (UniProt Q8NBT2), for which the “dose-dependent thermal stabilisation call” value is inactive: 0.
For STARD3 (UniProt Q14849), the “dose-dependent thermal stabilisation call” value is inactive: 0.
In the case of SMYD5 (UniProt Q6GMV2) it was inactive: 0.
On to SPTBN1 (UniProt Q01082), for which the “dose-dependent thermal stabilisation call” value is inactive: 0.
Turning to TAF6L (UniProt Q9Y6J9), the “dose-dependent thermal stabilisation call” value is inactive: 0.
As to SNRPD1 (UniProt P62314), the “dose-dependent thermal stabilisation call” value is inactive: 0.
Take SSU72 (UniProt Q9NP77): the “dose-dependent thermal stabilisation call” value was inactive: 0.
The value for SNAP23 (UniProt O00161) was active: 1.
On to SUGT1 (UniProt Q9Y2Z0), for which the “dose-dependent thermal stabilisation call” value is inactive: 0.
In the case of SNX1 (UniProt Q13596) it was inactive: 0; in that of SOS2 (UniProt Q07890), inactive: 0.
With SNX12 (UniProt Q9UMY4), the “dose-dependent thermal stabilisation call” value was inactive: 0.
The value for SNX4 (UniProt O95219) was inactive: 0.
The value for SLC9A1 (UniProt P19634) was inactive: 0; that for STT3B (UniProt Q8TCJ2) was inactive: 0.
On to STK25 (UniProt O00506), for which the “dose-dependent thermal stabilisation call” value is inactive: 0.
On to STAT2 (UniProt P52630), for which the “dose-dependent thermal stabilisation call” value was inactive: 0.
Consider SYNJ2 (UniProt O15056), for which the “dose-dependent thermal stabilisation call” value is inactive: 0.
Take SUB1 (UniProt P53999): the “dose-dependent thermal stabilisation call” value was inactive: 0.
As for STK11 (UniProt Q15831), the “dose-dependent thermal stabilisation call” value is inactive: 0.
In the case of STIM1 (UniProt Q13586) it was inactive: 0; in that of TAF7 (UniProt Q15545), inactive: 0.
In the case of SMCR8 (UniProt Q8TEV9) it was inactive: 0.
Regarding SLMAP (UniProt Q14BN4), the “dose-dependent thermal stabilisation call” value was inactive: 0.
In the case of SUCLG1 (UniProt P53597) it was inactive: 0.
For TAF1 (UniProt P21675), the “dose-dependent thermal stabilisation call” value is inactive: 0.
